# Measurements published in article PMC6770237.
# Chains of the proteins cited; added tags and fusions are not shown.
# UniProt Q01939: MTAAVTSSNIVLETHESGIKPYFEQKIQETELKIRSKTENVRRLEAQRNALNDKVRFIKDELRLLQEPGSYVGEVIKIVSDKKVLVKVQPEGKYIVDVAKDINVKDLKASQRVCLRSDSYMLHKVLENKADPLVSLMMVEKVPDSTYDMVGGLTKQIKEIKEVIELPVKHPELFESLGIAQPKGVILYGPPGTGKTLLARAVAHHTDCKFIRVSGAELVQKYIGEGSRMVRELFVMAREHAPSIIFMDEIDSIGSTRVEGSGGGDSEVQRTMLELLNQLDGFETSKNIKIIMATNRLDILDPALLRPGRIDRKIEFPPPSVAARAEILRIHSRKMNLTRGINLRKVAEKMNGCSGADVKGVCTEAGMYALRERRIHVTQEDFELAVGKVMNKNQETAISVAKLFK
# UniProt P43588: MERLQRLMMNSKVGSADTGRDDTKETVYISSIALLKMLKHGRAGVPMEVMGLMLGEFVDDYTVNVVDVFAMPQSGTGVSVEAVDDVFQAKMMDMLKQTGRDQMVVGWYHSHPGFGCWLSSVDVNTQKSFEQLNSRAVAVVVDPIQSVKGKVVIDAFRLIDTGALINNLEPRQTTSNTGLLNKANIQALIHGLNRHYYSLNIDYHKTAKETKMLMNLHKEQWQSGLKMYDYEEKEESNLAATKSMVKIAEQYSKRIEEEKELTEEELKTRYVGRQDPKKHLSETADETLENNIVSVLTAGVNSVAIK
# No constants are given. Whether binding was seen depends on the method and setting. In cells and extracts the contact can be indirect. Some binding calls cover weakened binding; strength is not graded here.
# Legend:
# [1] = target: CBP-A2-Rpt6 (Rpt6 amino-terminally tagged by a calmodulin binding peptide and two repeats of protein A) (S. cerevisiae) (UniProt Q01939); test: pull-down; calmodulin sepharose affinity purification of CBP-A2-Rpt6 from lysate of WT cells, in the absence of ATP; 25 mM Tris pH 7.4, 200 mM NaCl, 2 mM CaCl2, 0.2% NP-40, 4 °C; elution with EGTA; immunoblotting
# [2] = target: CBP-A2-Rpt6 (Rpt6 amino-terminally tagged by a calmodulin binding peptide and two repeats of protein A) (S. cerevisiae) (UniProt Q01939); test: pull-down; calmodulin sepharose affinity purification of CBP-A2-Rpt6 from lysate of rpn11-m1 mutant cells, in the absence of ATP; 25 mM Tris pH 7.4, 200 mM NaCl, 2 mM CaCl2, 0.2% NP-40, 4 °C; elution with EGTA; immunoblotting
Molecule,binding [1],binding [2]
Rpn11 (wild type) (from UniProt P43588 1-306),binds,–
"Cdc53-Cullin1 (yCul1) (protein, UniProt Q12018 1-815) MSETLPRSDDLEATWNFIEPGINQILGNEKNQASTSKRVYKILSPTMYMEVYTAIYNYCVNKSRSSGHFSTDSRTGQSTILVGSEIYEKLKNYLKNYILNFKQSNSETFLQFYVKRWKRFTIGAIFLNHAFDYMNRYWVQKERSDGKRHIFDVNTLCLMTWKEVMFDPSKDVLINELLDQVTLGREGQIIQRSNISTAIKSLVALGIDPQDLKKLNLNVYIQVFEKPFLKKTQEYYTQYTNDYLEKHSVTEYIFEAHEIIKREEKAMTIYWDDHTKKPLSMALNKVLITDHIEKLENEFVVLLDARDIEKITSLYALIRRDFTLIPRMASVFENYVKKTGENEISSLLAMHKHNIMKNENANPKKLALMTAHSLSPKDYIKKLLEVHDIFSKIFNESFPDDIPLAKALDNACGAFININEFALPAGSPKSATSKTSEMLAKYSDILLKKATKPEVASDMSDEDIITIFKYLTDKDAFETHYRRLFAKRLIHGTSTSAEDEENIIQRLQAANSMEYTGKITKMFQDIRLSKILEDDFAVALKNEPDYSKAKYPDLQPFVLAENMWPFSYQEVEFKLPKELVPSHEKLKESYSQKHNGRILKWLWPLCRGELKADIGKPGRMPFNFTVTLFQMAILLLYNDADVLTLENIQEGTSLTIQHIAAAMVPFIKFKLIQQVPPGLDALVKPETQFKLSRPYKALKTNINFASGVKNDILQSLSGGGHDNHGNKLGNKRLTEDERIEKELNTERQIFLEACIVRIMKAKRNLPHTTLVNECIAQSHQRFNAKVSMVKRAIDSLIQKGYLQRGDDGESYAYLA",binds,binds
"Cdc4 (protein, UniProt P07834 1-779) MGSFPLAEFPLRDIPVPYSYRVSGGIASSGSVTALVTAAGTHRNSSTAKTVETEDGEEDIDEYQRKRAAGSGESTPERSDFKRVKHDNHKTLHPVNLQNTGAASVDNDGLHNLTDISNDAEKLLMSVDDGSAAPSTLSVNMGVASHNVAAPTTVNAATITGSDVSNNVNSATINNPMEEGALPLSPTASSPGTTTPLAKTTKTINNNNNIADLIESKDSIISPEYLSDEIFSAINNNLPHAYFKNLLFRLVANMDRSELSDLGTLIKDNLKRDLITSLPFEISLKIFNYLQFEDIINSLGVSQNWNKIIRKSTSLWKKLLISENFVSPKGFNSLNLKLSQKYPKLSQQDRLRLSFLENIFILKNWYNPKFVPQRTTLRGHMTSVITCLQFEDNYVITGADDKMIRVYDSINKKFLLQLSGHDGGVWALKYAHGGILVSGSTDRTVRVWDIKKGCCTHVFKGHNSTVRCLDIVEYKNIKYIVTGSRDNTLHVWKLPKESSVPDHGEEHDYPLVFHTPEENPYFVGVLRGHMASVRTVSGHGNIVVSGSYDNTLIVWDVAQMKCLYILSGHTDRIYSTIYDHERKRCISASMDTTIRIWDLENIWNNGECSYATNSASPCAKILGAMYTLQGHTALVGLLRLSDKFLVSAAADGSIRGWDANDYSRKFSYHHTNLSAITTFYVSDNILVSGSENQFNIYNLRSGKLVHANILKDADQIWSVNFKGKTLVAAVEKDGQSFLEILDFSKASKINYVSNPVNSSSSSLESISTSLGLTRTTIIP",–,binds
